Data taken from publication PMC12775124, “CUL4A-DDB1-DCAF10 is an N-recognin for N-terminally acetylated Src kinases” (Nature Communications, 2026).
Results are given in words; binding and its absence hold for the method and conditions named. Some binding calls cover weakened binding; strength is not graded here. Sequences can lack the tags named with a protein.

By UniProt entry, the sequences of proteins in these tests, tags left out. Where a name states a change or a piece, a line headed by the entry shows the natural chain unless it says otherwise.
UniProt Q16531: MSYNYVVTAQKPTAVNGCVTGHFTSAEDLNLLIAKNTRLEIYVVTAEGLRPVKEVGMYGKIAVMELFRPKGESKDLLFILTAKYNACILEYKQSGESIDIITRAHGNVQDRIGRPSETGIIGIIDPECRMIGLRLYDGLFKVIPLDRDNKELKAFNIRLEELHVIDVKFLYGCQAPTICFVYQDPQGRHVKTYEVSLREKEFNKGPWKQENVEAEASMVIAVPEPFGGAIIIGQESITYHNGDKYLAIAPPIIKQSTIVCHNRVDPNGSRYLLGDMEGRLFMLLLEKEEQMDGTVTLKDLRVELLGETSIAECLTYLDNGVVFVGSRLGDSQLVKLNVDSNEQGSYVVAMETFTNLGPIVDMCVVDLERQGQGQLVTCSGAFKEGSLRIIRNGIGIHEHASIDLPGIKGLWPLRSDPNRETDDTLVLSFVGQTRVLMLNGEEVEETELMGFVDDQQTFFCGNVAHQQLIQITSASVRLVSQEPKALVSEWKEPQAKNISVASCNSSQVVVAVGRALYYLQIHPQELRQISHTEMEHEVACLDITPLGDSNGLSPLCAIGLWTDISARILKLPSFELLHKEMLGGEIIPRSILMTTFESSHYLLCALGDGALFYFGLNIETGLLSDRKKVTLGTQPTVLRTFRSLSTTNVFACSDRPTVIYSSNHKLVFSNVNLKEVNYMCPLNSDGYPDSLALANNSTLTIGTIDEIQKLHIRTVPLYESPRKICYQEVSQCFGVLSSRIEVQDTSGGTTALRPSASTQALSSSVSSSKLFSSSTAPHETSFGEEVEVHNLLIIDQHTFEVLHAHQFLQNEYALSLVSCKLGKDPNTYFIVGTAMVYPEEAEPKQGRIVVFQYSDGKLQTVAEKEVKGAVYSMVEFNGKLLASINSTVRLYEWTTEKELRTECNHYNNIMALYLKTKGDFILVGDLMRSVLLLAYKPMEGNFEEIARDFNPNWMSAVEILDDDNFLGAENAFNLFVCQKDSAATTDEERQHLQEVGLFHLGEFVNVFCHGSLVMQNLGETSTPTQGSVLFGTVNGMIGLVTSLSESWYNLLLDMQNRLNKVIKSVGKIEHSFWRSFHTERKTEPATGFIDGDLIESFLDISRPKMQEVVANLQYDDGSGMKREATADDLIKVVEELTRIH
UniProt Q6I9Y2: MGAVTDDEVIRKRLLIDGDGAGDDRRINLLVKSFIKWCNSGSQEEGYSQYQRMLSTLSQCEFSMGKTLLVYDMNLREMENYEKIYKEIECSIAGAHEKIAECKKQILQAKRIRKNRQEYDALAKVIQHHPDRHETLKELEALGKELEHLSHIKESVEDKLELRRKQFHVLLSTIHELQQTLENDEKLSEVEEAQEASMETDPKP

Legend:
StrepII-DDB1 = StrepII-DDB1 (UniProt Q16531); experiment: reconstitution and purification of a complex; E3 ligase complexes (WT: CUL4A, RBX1, MBP-DCAF10, StrepII-DDB1; RBX1^mut; -DCAF10; DCAF10^mut) purified and shown by TCE in-gel visualization; procedure in the Supplementary Methods
Nt-free THOC7 peptide = biological target: T1, Nt-free THOC7 peptide (UniProt Q6I9Y2); experiment: pull-down; Nt-peptides bound to streptavidin beads incubated with purified GST-DCAF10 or GST alone; Western blots against GST, DCAF10 and streptavidin; n = 3; both purified
T1 sequence (peptide, biotin at the C-terminus after the Lys3 spacer): GAVTDDEVIRKKK

[1] = biological target: T2, Nt-acetylated THOC7 peptide (UniProt Q6I9Y2); experiment: as above
T2 sequence (peptide, N-terminal acetyl on Gly2; biotin at the C-terminus after the Lys3 spacer): GAVTDDEVIRKKK

B1: MBP-DCAF10 (protein, UniProt Q5QP82 1-559)
chain: MFPFGPHSPGGDGSAGAGAEEPTPHEGQAAATGPPSPLHPGADATHPPPPARSPRRPGAPSLSPAPRSGELGLPGAPESSTASAPGEPSPPSPPCRRPGPDCRAKSRGRHGLGAGLGGPGARLFGWLKERSLGRGLFVDPARDNFRTMTSLYGSIHPADSVYLSTRTHGAVFNLEYSPDGSVLTVACEQTEVLLFDPISSKHIKTLSEAHEDCVNNIRFLDNRLFATCSDDTTIALWDLRKLNTKVCTLHGHTSWVKNIEYDTNTRLLVTSGFDGNVIIWDTNRYTEDGCPHKKFFHTRFLMRMRLTPDCSKMLISTSSGYLLILHDLDLTKSLEVGSYPILRARRTTSSSDLTTSSSSSGPRVSGSPCHHSDSNSSEKHMSRASQREGVSPRNSLEVVTPEVLGESDHGNCITSLQLHPKGWATLLRCSSNSDDEECTCVYEFQEGAPVRPVSPRCSLRLTHYIEEANVGRGYIKELCFSPDGRMISSPHGYGIRLLGFDKQCSELVDCLPKEASPLRVIRSLYSHNDVVLTTKFSPTHCQIASGCLSGRVSLYQPKF
binding (StrepII-DDB1): binds

B2: DCAF10^mut (F172G, K257A, I475G) (protein, UniProt Q5QP82 1-559)
chain: MFPFGPHSPGGDGSAGAGAEEPTPHEGQAAATGPPSPLHPGADATHPPPPARSPRRPGAPSLSPAPRSGELGLPGAPESSTASAPGEPSPPSPPCRRPGPDCRAKSRGRHGLGAGLGGPGARLFGWLKERSLGRGLFVDPARDNFRTMTSLYGSIHPADSVYLSTRTHGAVGNLEYSPDGSVLTVACEQTEVLLFDPISSKHIKTLSEAHEDCVNNIRFLDNRLFATCSDDTTIALWDLRKLNTKVCTLHGHTSWVANIEYDTNTRLLVTSGFDGNVIIWDTNRYTEDGCPHKKFFHTRFLMRMRLTPDCSKMLISTSSGYLLILHDLDLTKSLEVGSYPILRARRTTSSSDLTTSSSSSGPRVSGSPCHHSDSNSSEKHMSRASQREGVSPRNSLEVVTPEVLGESDHGNCITSLQLHPKGWATLLRCSSNSDDEECTCVYEFQEGAPVRPVSPRCSLRLTHYIEEANVGRGYGKELCFSPDGRMISSPHGYGIRLLGFDKQCSELVDCLPKEASPLRVIRSLYSHNDVVLTTKFSPTHCQIASGCLSGRVSLYQPKF
binding (StrepII-DDB1): binds

B3: GST-DCAF10 (protein, UniProt Q5QP82 1-559)
chain: MFPFGPHSPGGDGSAGAGAEEPTPHEGQAAATGPPSPLHPGADATHPPPPARSPRRPGAPSLSPAPRSGELGLPGAPESSTASAPGEPSPPSPPCRRPGPDCRAKSRGRHGLGAGLGGPGARLFGWLKERSLGRGLFVDPARDNFRTMTSLYGSIHPADSVYLSTRTHGAVFNLEYSPDGSVLTVACEQTEVLLFDPISSKHIKTLSEAHEDCVNNIRFLDNRLFATCSDDTTIALWDLRKLNTKVCTLHGHTSWVKNIEYDTNTRLLVTSGFDGNVIIWDTNRYTEDGCPHKKFFHTRFLMRMRLTPDCSKMLISTSSGYLLILHDLDLTKSLEVGSYPILRARRTTSSSDLTTSSSSSGPRVSGSPCHHSDSNSSEKHMSRASQREGVSPRNSLEVVTPEVLGESDHGNCITSLQLHPKGWATLLRCSSNSDDEECTCVYEFQEGAPVRPVSPRCSLRLTHYIEEANVGRGYIKELCFSPDGRMISSPHGYGIRLLGFDKQCSELVDCLPKEASPLRVIRSLYSHNDVVLTTKFSPTHCQIASGCLSGRVSLYQPKF
binding (Nt-free THOC7 peptide): no binding | binding [1]: no binding
